Our source for the binding values is paper PMC7966362.

Sequences of proteins named here, by UniProt entry; tags and fusion partners are left off.
UniProt Q80SW1: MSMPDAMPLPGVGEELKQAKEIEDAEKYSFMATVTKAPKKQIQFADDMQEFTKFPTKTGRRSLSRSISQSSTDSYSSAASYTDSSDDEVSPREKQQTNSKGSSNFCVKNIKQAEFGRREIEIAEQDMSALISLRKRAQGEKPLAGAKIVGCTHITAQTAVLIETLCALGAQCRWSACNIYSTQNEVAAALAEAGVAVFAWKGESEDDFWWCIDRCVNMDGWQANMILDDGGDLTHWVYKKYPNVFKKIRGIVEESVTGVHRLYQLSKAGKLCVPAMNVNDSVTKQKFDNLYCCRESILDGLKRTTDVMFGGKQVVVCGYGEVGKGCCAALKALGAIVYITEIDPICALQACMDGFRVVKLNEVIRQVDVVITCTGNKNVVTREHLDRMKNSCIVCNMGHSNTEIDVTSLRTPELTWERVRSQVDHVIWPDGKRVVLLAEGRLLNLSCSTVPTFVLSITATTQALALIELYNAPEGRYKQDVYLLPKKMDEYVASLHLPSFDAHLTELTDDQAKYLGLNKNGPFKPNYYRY

No constants are given. Whether binding was seen depends on the method and setting. Binding seen in cells or lysates may run through a third protein. Some entries that bind do so weakly or less than the wild type. Tags and fused reporters may be left off the sequences shown.

Assay [1] has as its target T1, HA-tagged AE2 wild type (full length, mouse) (mouse) (UniProt P13808).
T1 sequence: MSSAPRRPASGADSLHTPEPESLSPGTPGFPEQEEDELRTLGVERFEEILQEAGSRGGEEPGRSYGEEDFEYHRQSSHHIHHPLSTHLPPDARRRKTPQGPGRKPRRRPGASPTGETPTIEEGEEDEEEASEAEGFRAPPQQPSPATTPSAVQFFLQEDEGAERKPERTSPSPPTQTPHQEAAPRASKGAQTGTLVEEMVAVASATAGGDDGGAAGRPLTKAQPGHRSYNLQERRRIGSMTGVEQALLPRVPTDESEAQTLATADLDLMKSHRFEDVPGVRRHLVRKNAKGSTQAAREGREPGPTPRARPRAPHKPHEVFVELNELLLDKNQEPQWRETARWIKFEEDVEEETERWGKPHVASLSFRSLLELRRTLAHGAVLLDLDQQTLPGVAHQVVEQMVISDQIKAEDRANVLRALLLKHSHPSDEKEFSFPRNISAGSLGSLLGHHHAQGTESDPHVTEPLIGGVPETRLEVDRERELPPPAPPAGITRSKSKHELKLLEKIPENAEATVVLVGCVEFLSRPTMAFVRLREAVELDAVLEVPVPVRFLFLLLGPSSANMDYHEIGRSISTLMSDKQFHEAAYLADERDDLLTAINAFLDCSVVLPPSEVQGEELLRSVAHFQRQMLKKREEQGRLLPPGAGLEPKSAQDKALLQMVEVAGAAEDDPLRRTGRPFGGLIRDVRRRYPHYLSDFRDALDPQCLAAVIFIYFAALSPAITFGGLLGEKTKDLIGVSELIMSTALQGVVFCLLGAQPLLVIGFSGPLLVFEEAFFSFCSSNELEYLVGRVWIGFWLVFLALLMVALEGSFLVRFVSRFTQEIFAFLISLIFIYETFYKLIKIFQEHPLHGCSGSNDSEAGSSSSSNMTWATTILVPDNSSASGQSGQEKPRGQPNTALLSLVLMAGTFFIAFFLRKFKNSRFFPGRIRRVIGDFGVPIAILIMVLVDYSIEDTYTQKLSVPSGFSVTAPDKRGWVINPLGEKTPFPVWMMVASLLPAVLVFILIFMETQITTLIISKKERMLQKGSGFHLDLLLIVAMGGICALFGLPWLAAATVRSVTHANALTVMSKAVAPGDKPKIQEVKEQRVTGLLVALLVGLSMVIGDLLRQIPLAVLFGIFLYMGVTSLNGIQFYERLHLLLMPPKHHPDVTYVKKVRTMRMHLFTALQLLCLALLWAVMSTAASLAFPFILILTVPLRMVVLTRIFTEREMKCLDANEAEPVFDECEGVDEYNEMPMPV
Kind of assay: co-IP; HEK 293T cells transfected with tagged constructs; lysis buffer 10 mM HEPES pH 7.4, 100 mM NaCl, 2 mM EDTA, 0.1% Triton X-100, 10 mM sodium fluoride; antibodies and Protein G overnight at 4 °C; immunoblot.

Assay [2] concerns the target HA-tagged IRBIT, in IRBIT/L-IRBIT DKO cells (UniProt Q80SW1). The assay can be described thus: co-IP; IRBIT/L-IRBIT double knockout B16-F10 cells transfected with GFP-tagged AE2 and HA-tagged IRBIT and/or FLAG-tagged L-IRBIT; IP with anti-HA or anti-FLAG antibody; immunoblot. (In general: In western blotting, separated proteins are transferred to a membrane and probed.)

Assay [3] addresses FLAG-tagged IRBIT wild type (UniProt Q80SW1). The assay can be described thus: co-IP; HEK 293T cells transfected with tagged constructs; lysis buffer 10 mM HEPES pH 7.4, 100 mM NaCl, 2 mM EDTA, 0.1% Triton X-100, 10 mM sodium fluoride; antibodies and Protein G overnight at 4 °C; immunoblot.

Regarding “FLAG-tagged IRBIT wild type (from UniProt Q80SW1 1-530)”, the binding result in assay [1] is “binds”.

B1: GFP-tagged AE2 wild type, in IRBIT/L-IRBIT DKO cells (protein, UniProt P13808 1-1237)
chain: MSSAPRRPASGADSLHTPEPESLSPGTPGFPEQEEDELRTLGVERFEEILQEAGSRGGEEPGRSYGEEDFEYHRQSSHHIHHPLSTHLPPDARRRKTPQGPGRKPRRRPGASPTGETPTIEEGEEDEEEASEAEGFRAPPQQPSPATTPSAVQFFLQEDEGAERKPERTSPSPPTQTPHQEAAPRASKGAQTGTLVEEMVAVASATAGGDDGGAAGRPLTKAQPGHRSYNLQERRRIGSMTGVEQALLPRVPTDESEAQTLATADLDLMKSHRFEDVPGVRRHLVRKNAKGSTQAAREGREPGPTPRARPRAPHKPHEVFVELNELLLDKNQEPQWRETARWIKFEEDVEEETERWGKPHVASLSFRSLLELRRTLAHGAVLLDLDQQTLPGVAHQVVEQMVISDQIKAEDRANVLRALLLKHSHPSDEKEFSFPRNISAGSLGSLLGHHHAQGTESDPHVTEPLIGGVPETRLEVDRERELPPPAPPAGITRSKSKHELKLLEKIPENAEATVVLVGCVEFLSRPTMAFVRLREAVELDAVLEVPVPVRFLFLLLGPSSANMDYHEIGRSISTLMSDKQFHEAAYLADERDDLLTAINAFLDCSVVLPPSEVQGEELLRSVAHFQRQMLKKREEQGRLLPPGAGLEPKSAQDKALLQMVEVAGAAEDDPLRRTGRPFGGLIRDVRRRYPHYLSDFRDALDPQCLAAVIFIYFAALSPAITFGGLLGEKTKDLIGVSELIMSTALQGVVFCLLGAQPLLVIGFSGPLLVFEEAFFSFCSSNELEYLVGRVWIGFWLVFLALLMVALEGSFLVRFVSRFTQEIFAFLISLIFIYETFYKLIKIFQEHPLHGCSGSNDSEAGSSSSSNMTWATTILVPDNSSASGQSGQEKPRGQPNTALLSLVLMAGTFFIAFFLRKFKNSRFFPGRIRRVIGDFGVPIAILIMVLVDYSIEDTYTQKLSVPSGFSVTAPDKRGWVINPLGEKTPFPVWMMVASLLPAVLVFILIFMETQITTLIISKKERMLQKGSGFHLDLLLIVAMGGICALFGLPWLAAATVRSVTHANALTVMSKAVAPGDKPKIQEVKEQRVTGLLVALLVGLSMVIGDLLRQIPLAVLFGIFLYMGVTSLNGIQFYERLHLLLMPPKHHPDVTYVKKVRTMRMHLFTALQLLCLALLWAVMSTAASLAFPFILILTVPLRMVVLTRIFTEREMKCLDANEAEPVFDECEGVDEYNEMPMPV
Turning to B1, in assay [2], the binding entry is on record as “binds”.

B2: HA-tagged AE2 wild type (full length, mouse) (protein, UniProt P13808 1-1237)
chain: MSSAPRRPASGADSLHTPEPESLSPGTPGFPEQEEDELRTLGVERFEEILQEAGSRGGEEPGRSYGEEDFEYHRQSSHHIHHPLSTHLPPDARRRKTPQGPGRKPRRRPGASPTGETPTIEEGEEDEEEASEAEGFRAPPQQPSPATTPSAVQFFLQEDEGAERKPERTSPSPPTQTPHQEAAPRASKGAQTGTLVEEMVAVASATAGGDDGGAAGRPLTKAQPGHRSYNLQERRRIGSMTGVEQALLPRVPTDESEAQTLATADLDLMKSHRFEDVPGVRRHLVRKNAKGSTQAAREGREPGPTPRARPRAPHKPHEVFVELNELLLDKNQEPQWRETARWIKFEEDVEEETERWGKPHVASLSFRSLLELRRTLAHGAVLLDLDQQTLPGVAHQVVEQMVISDQIKAEDRANVLRALLLKHSHPSDEKEFSFPRNISAGSLGSLLGHHHAQGTESDPHVTEPLIGGVPETRLEVDRERELPPPAPPAGITRSKSKHELKLLEKIPENAEATVVLVGCVEFLSRPTMAFVRLREAVELDAVLEVPVPVRFLFLLLGPSSANMDYHEIGRSISTLMSDKQFHEAAYLADERDDLLTAINAFLDCSVVLPPSEVQGEELLRSVAHFQRQMLKKREEQGRLLPPGAGLEPKSAQDKALLQMVEVAGAAEDDPLRRTGRPFGGLIRDVRRRYPHYLSDFRDALDPQCLAAVIFIYFAALSPAITFGGLLGEKTKDLIGVSELIMSTALQGVVFCLLGAQPLLVIGFSGPLLVFEEAFFSFCSSNELEYLVGRVWIGFWLVFLALLMVALEGSFLVRFVSRFTQEIFAFLISLIFIYETFYKLIKIFQEHPLHGCSGSNDSEAGSSSSSNMTWATTILVPDNSSASGQSGQEKPRGQPNTALLSLVLMAGTFFIAFFLRKFKNSRFFPGRIRRVIGDFGVPIAILIMVLVDYSIEDTYTQKLSVPSGFSVTAPDKRGWVINPLGEKTPFPVWMMVASLLPAVLVFILIFMETQITTLIISKKERMLQKGSGFHLDLLLIVAMGGICALFGLPWLAAATVRSVTHANALTVMSKAVAPGDKPKIQEVKEQRVTGLLVALLVGLSMVIGDLLRQIPLAVLFGIFLYMGVTSLNGIQFYERLHLLLMPPKHHPDVTYVKKVRTMRMHLFTALQLLCLALLWAVMSTAASLAFPFILILTVPLRMVVLTRIFTEREMKCLDANEAEPVFDECEGVDEYNEMPMPV
As to B2, the binding entry in assay [3] was “binds”.
